Measurements taken from patent publication US20240391978A1, “APOLIPOPROTEIN FUSION PROTEINS FOR CELL-SPECIFIC IMMUNE REGULATION” (BIO-TRIP B.V., priority 2021, published 2024).

Test system: Macrophages
Assay: RNA sequencing of IL4-trained macrophages
Type: cell-based, human
Conditions: before and after LPS re-stimulation on day 6

## IL4: recombinant human interleukin 4
  genes attenuated in IL4-trained macrophages: 249 genes
  genes more strongly induced ('upregulated') in IL4-trained macrophages: 140 genes
